Reference: patent publication US20030211075A1 (priority 2001, published 2003)
Results are given in words; binding and its absence hold for the method and conditions named.

Key:
[1] = biological target: T1, recombinant, depyrogenated truncated Tissue Factor (amino acids 1-219), from expression vector pswc7 (human), P13726; experiment: SPR (Biacore), tTF preincubated with LPS (10 µg/ml) injected over immobilized tTF; conditions: remark: other sources report otherwise
T1 chain: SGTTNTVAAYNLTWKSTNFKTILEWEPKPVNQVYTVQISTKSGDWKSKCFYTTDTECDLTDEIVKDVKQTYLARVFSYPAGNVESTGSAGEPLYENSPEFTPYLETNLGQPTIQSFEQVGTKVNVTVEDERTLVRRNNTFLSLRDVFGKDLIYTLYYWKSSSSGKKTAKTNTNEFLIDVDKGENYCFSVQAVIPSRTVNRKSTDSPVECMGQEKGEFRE

[2] = biological target: T1, recombinant, depyrogenated truncated …; experiment: SPR (Biacore), tTF alone injected over tTF immobilized by amine coupling or captured by an anti-human TF antibody; conditions: remark: other sources report otherwise

B1: recombinant, depyrogenated truncated Tissue Factor (amino acids 1-219), from expression vector pswc7, P13726 33-251 (receptor, human, UniProt P13726 33-251, looked up)
chain: T1 chain
[1]
  binding: no binding (tested: 30 µg/ml)
[2]
  binding: no binding (tested: 30 µg/ml)
